Reference: the supplement of paper PMC10849652
The other results are listed elsewhere or left out.

Chains of the proteins cited; added tags and fusions are not shown. Lines headed by an entry give the natural chain unless they say otherwise; changes in a name come on top.
UniProt Q4G0F5, whole entry, looked up: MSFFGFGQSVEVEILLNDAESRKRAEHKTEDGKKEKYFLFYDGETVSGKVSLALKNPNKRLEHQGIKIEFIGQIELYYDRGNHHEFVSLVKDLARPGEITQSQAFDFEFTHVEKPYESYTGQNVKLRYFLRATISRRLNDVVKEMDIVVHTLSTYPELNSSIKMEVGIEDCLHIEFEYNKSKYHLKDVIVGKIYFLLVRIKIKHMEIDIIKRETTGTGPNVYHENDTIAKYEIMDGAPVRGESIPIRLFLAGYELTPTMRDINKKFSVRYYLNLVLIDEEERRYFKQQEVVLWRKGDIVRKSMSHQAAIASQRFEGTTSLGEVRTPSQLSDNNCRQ
UniProt Q8TBZ3: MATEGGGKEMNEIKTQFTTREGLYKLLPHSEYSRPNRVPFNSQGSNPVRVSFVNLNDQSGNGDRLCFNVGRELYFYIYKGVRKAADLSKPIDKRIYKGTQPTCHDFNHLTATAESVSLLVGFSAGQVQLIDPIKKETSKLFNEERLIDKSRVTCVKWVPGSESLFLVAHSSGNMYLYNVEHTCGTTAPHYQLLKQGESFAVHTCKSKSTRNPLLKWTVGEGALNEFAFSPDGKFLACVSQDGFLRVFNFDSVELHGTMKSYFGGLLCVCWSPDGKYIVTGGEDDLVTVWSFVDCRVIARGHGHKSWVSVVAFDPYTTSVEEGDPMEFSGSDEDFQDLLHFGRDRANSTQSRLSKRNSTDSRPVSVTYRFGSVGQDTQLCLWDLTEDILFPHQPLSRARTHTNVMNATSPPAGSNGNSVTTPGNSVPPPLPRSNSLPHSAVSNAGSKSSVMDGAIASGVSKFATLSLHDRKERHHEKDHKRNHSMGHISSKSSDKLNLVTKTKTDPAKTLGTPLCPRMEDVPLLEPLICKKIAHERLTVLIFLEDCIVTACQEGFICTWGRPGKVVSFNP
UniProt P23025: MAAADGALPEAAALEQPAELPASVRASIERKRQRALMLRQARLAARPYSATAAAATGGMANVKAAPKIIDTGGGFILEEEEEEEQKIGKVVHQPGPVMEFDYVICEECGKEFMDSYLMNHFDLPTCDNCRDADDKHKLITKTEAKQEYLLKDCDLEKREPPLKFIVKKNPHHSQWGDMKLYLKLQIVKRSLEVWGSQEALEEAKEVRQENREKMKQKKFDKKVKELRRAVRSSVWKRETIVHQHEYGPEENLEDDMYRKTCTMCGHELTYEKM
UniProt Q9H270: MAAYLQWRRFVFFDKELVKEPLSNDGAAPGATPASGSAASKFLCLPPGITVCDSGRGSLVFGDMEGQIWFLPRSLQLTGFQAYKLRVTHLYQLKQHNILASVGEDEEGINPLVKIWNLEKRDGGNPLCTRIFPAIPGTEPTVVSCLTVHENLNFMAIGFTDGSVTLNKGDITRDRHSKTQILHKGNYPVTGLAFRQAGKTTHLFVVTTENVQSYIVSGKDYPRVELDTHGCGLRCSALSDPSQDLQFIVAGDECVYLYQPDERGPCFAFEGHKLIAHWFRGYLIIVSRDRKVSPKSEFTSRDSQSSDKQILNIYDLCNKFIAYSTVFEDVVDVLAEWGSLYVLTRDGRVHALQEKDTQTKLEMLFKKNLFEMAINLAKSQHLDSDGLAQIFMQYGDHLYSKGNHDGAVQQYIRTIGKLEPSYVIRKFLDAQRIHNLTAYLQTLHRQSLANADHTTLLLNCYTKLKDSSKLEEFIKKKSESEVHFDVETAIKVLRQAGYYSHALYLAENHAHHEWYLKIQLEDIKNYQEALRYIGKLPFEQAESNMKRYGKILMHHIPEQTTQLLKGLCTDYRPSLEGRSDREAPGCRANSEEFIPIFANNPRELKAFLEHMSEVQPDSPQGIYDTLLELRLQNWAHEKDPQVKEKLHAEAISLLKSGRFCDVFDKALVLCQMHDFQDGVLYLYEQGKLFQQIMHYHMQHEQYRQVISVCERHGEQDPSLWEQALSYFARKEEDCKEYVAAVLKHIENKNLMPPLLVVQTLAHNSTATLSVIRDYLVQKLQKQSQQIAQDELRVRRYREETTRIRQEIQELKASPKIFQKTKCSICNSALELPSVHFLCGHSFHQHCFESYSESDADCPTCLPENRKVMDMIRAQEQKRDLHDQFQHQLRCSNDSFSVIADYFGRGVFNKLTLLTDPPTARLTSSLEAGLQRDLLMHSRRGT
UniProt Q15007: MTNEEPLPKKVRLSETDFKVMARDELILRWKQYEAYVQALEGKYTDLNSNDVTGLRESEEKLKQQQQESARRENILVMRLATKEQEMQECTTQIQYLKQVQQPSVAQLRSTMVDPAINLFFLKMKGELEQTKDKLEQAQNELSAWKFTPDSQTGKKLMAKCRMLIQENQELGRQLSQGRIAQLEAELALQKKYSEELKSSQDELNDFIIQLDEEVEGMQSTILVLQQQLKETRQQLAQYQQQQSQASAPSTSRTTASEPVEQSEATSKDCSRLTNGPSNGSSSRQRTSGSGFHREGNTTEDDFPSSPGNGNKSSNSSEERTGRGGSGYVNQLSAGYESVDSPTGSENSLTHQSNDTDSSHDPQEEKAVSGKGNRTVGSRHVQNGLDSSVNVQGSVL
UniProt Q5VIR6: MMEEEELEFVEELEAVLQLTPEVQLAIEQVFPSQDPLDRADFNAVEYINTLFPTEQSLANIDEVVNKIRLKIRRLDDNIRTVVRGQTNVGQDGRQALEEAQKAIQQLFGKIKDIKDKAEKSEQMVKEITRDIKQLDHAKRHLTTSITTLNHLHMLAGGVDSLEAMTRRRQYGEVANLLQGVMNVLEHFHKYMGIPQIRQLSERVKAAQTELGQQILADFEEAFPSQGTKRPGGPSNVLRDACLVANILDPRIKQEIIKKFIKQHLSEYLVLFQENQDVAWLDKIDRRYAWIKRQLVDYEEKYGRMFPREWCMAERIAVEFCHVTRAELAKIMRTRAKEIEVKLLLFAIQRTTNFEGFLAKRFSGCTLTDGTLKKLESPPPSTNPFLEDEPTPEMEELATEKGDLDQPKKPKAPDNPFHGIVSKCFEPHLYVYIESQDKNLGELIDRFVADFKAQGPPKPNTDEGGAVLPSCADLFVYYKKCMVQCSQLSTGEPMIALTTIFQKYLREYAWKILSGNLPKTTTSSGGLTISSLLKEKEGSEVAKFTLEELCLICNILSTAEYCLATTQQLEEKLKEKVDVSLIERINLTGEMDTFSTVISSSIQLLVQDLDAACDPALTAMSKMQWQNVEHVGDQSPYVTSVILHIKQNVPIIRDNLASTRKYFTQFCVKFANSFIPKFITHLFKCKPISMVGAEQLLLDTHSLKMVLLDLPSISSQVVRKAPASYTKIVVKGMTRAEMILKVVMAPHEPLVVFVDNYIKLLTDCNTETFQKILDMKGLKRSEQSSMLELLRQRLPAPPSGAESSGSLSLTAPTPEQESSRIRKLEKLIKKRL
UniProt Q8IWA0: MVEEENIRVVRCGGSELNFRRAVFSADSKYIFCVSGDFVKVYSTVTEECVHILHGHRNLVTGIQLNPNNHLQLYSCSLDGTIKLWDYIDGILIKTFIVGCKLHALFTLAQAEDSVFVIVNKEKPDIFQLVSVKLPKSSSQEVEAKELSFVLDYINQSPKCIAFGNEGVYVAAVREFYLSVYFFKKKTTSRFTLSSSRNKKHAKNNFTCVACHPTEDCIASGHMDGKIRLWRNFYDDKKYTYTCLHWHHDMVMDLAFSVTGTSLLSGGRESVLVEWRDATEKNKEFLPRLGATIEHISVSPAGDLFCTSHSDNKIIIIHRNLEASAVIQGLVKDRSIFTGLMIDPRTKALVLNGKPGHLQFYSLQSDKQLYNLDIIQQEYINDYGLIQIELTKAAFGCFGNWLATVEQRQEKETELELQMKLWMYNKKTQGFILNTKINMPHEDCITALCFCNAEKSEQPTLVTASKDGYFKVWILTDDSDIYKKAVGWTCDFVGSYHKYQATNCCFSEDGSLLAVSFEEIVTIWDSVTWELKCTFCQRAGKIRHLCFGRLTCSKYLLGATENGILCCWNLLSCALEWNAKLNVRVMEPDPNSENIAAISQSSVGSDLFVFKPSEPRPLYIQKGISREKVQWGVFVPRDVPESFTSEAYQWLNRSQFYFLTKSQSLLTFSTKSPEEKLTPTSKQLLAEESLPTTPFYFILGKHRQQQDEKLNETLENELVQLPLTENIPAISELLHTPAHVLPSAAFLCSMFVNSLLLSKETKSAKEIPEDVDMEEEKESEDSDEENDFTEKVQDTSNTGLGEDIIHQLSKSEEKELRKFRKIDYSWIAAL
UniProt Q96FK6: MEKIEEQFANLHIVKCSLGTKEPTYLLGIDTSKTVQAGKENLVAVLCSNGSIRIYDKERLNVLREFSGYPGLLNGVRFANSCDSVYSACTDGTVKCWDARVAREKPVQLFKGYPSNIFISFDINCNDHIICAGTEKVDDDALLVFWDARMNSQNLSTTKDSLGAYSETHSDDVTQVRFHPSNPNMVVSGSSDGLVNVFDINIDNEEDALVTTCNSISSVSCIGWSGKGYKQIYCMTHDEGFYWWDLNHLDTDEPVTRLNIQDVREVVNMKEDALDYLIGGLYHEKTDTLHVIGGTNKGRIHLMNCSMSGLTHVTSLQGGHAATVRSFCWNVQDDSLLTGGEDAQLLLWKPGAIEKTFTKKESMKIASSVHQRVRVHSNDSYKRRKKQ
UniProt Q9BUR4: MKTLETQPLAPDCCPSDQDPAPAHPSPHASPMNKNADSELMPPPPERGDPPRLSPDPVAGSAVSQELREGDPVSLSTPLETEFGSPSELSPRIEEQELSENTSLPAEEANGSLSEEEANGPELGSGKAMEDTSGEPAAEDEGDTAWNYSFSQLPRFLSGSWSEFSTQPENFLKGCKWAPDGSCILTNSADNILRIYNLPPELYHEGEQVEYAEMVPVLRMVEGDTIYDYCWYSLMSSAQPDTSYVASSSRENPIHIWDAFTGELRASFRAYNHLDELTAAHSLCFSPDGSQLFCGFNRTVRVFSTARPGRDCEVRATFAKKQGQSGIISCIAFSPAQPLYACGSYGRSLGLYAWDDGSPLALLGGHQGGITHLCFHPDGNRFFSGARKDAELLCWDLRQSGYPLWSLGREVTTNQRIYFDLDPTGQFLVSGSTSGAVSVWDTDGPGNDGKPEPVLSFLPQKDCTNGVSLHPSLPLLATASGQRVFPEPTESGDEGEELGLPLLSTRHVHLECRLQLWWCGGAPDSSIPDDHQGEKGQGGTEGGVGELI
UniProt Q96AX1: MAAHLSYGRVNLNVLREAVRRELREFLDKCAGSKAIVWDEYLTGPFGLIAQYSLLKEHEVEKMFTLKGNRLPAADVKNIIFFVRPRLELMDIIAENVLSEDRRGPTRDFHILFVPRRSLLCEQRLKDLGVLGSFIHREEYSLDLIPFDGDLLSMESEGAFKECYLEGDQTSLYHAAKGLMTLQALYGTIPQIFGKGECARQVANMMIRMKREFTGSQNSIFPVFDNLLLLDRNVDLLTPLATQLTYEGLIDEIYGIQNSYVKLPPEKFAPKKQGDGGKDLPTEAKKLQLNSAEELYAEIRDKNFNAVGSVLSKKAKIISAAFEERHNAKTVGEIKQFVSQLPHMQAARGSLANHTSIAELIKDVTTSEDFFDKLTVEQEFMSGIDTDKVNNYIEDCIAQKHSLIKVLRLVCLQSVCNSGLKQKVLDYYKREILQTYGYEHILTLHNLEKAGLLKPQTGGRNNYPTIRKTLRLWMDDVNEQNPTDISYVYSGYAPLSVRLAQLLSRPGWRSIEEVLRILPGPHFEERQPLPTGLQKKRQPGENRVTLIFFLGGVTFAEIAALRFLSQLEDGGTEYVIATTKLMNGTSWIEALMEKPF
UniProt Q8NEZ2: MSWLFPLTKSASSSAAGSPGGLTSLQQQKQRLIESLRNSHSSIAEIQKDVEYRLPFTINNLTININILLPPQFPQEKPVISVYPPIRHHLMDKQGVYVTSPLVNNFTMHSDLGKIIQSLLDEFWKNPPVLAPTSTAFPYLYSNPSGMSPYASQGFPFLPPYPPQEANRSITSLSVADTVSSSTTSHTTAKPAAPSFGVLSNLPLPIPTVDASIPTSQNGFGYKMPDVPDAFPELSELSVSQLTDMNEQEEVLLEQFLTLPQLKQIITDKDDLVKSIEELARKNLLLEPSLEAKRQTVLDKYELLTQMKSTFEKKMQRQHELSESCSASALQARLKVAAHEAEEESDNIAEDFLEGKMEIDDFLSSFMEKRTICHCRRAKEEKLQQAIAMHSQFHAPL
UniProt Q6UXN9, whole entry, looked up: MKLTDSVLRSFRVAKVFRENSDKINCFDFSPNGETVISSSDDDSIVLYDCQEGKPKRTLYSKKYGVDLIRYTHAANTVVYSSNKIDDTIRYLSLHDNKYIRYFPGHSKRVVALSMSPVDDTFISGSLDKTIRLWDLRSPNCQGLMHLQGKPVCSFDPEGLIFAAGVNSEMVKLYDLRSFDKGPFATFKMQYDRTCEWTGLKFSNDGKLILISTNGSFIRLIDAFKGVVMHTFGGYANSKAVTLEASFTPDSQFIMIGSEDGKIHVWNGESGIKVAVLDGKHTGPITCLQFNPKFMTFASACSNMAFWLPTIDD

Key:
Assay in all cases: log2 fold change, soluble protein after heating vs DMSO (PISA); higher = thermal stabilisation; K562 lysate, 10 uM; active = over 0.2 and 3.5 SD of the protein, either way, in both replicates (recomputed)
nilotinib = compound: Cc1cn(-c2cc(NC(=O)c3ccc(C)c(Nc4nccc(-c5cccnc5)n4)c3)cc(C(F)(F)F)c2)cn1 [nilotinib]
Procedure, shortened: (§1)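 Following dounce homogenisation of K562 pellets in PBS pH 7.4 with 1 mM MgCl2, crude extract at 1 mg/mL protein was incubated for 30 min with 10 μM compound. Aliquots were then heated for 3 min over 48°C-58°C and pooled, NP-40 was added to 0.5% at 4°C, and soluble protein was recovered as the supernatant at 21,000xg for 90 min. Channel-sum-equalised TMTpro 16plex LC-MS/MS quantified this protein. Each value, from duplicates, is a log-two fold change in thermal stability relative to solvent controls.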

[1] = compound: Cc1nc(Nc2n[nH]c3c2CN(C(=O)N[C@H](CN(C)C)c2ccccc2)C3(C)C)c2sccc2n1
Procedure, shortened: as §1

dasatinib = compound: Cc1nc(Nc2ncc(C(=O)Nc3c(C)cccc3Cl)s2)cc(N2CCN(CCO)CC2)n1 [dasatinib]
Procedure, shortened: as §1

[2] = compound: Cc1ncc(-c2ccnc(Nc3ccc(S(C)(=O)=O)cc3)n2)n1C(C)C
Procedure, shortened: as §1

[3] = compound: Cn1cc(-c2ccc3c(c2)CCN3C(=O)Cc2cccc(C(F)(F)F)c2)c2c(N)ncnc21
Procedure, shortened: as §1

quisinostat = compound: Cn1cc(CNCC2CCN(c3ncc(C(=O)NO)cn3)CC2)c2ccccc21 [quisinostat]
Procedure, shortened: as §1

tipifarnib = compound: Cn1cncc1[C@@](N)(c1ccc(Cl)cc1)c1ccc2c(c1)c(-c1cccc(Cl)c1)cc(=O)n2C [tipifarnib]
Procedure, shortened: as §1

[4] = compound: NC(=O)Nc1cc(-c2cccc(F)c2)sc1C(=O)N[C@H]1CCCNC1
Procedure, shortened: as §1

[5] = compound: NC(=O)c1cnc(N[C@@H]2CCCC[C@@H]2N)nc1Nc1cccc(-n2nccn2)c1
Procedure, shortened: as §1

[6] = compound: NC1(c2ccc(-c3nc4ccn5c(=O)[nH]nc5c4cc3-c3ccccc3)cc2)CCC1
Procedure, shortened: as §1

[7] = compound: NCC(=O)Nc1ccc(-n2nc(C(F)(F)F)cc2-c2ccc3c(ccc4ccccc43)c2)cc1
Procedure, shortened: as §1

vorinostat = compound: O=C(CCCCCCC(=O)Nc1ccccc1)NO [vorinostat]
Procedure, shortened: as §1

silmitasertib = compound: O=C(O)c1ccc2c(c1)nc(Nc1cccc(Cl)c1)c1ccncc12 [silmitasertib]
Procedure, shortened: as §1

[8] = compound: O=C1NC(=O)C(c2cnc3ccccn23)=C1c1cn2c3c(cc(F)cc13)CN(C(=O)N1CCCCC1)CC2
Procedure, shortened: as §1

entospletinib = compound: c1cn2cc(-c3ccc4cn[nH]c4c3)nc(Nc3ccc(N4CCOCC4)cc3)c2n1 [entospletinib]
Procedure, shortened: as §1

Row | Target | log2 fold change (nilotinib) | log2 fold change [1] | log2 fold change (dasatinib) | log2 fold change [2] | log2 fold change [3] | log2 fold change (quisinostat) | log2 fold change (tipifarnib) | log2 fold change [4] | log2 fold change [5] | log2 fold change [6] | log2 fold change [7] | log2 fold change (vorinostat) | log2 fold change (silmitasertib) | log2 fold change [8] | log2 fold change (entospletinib)
1 | WDR59 (UniProt Q6PJI9) | inactive: -0.009 | inactive: -0.057 | inactive: -0.001 | inactive: 0.029 | inactive: 0 | inactive: -0.07 | inactive: 0.01 | inactive: 0.061 | inactive: 0.019 | inactive: -0.02 | inactive: -0.098 | inactive: -0.258 | inactive: -0.02 | inactive: 0.019 | inactive: 0.006
2 | VPS26B (UniProt Q4G0F5) | inactive: 0.042 | inactive: -0.015 | inactive: 0.017 | inactive: -0.011 | inactive: -0.039 | inactive: -0.04 | inactive: 0.077 | inactive: 0.002 | inactive: -0.01 | inactive: 0 | inactive: 0.024 | inactive: 0.029 | inactive: -0.002 | inactive: -0.006 | inactive: 0.008
3 | WDR20 isoform 7 (UniProt Q8TBZ3) | inactive: -0.001 | inactive: 0.029 | inactive: 0.055 | inactive: -0.229 | inactive: 0.038 | inactive: 0.027 | inactive: -0.174 | inactive: 0.009 | inactive: -0.026 | inactive: -0.042 | inactive: 0.01 | inactive: 0.009 | inactive: 0.087 | inactive: -0.013 | inactive: 0.018
4 | XPA (UniProt P23025) | inactive: 0.021 | inactive: -0.04 | inactive: -0.067 | inactive: 0.106 | inactive: -0.035 | inactive: 0.029 | inactive: -0.052 | inactive: -0.026 | inactive: 0.016 | inactive: -0.005 | inactive: -0.026 | inactive: 0.047 | inactive: -0.012 | inactive: 0.053 | inactive: 0.014
5 | VPS11 (UniProt Q9H270) | inactive: -0.007 | inactive: -0.008 | inactive: -0.003 | inactive: -0.018 | inactive: -0.002 | inactive: -0.055 | inactive: -0.002 | inactive: 0.06 | inactive: -0.003 | inactive: 0.003 | inactive: 0.023 | active: -0.509 | inactive: -0.009 | inactive: 0.011 | inactive: -0.006
6 | VPS13D (UniProt Q5THJ4) | inactive: -0.03 | inactive: 0.017 | inactive: -0.12 | inactive: -0.052 | inactive: 0.032 | inactive: -0.149 | inactive: -0.175 | inactive: 0.044 | inactive: -0.009 | inactive: -0.012 | inactive: -0.113 | inactive: -0.228 | inactive: -0.02 | inactive: -0.027 | inactive: -0.102
7 | VRK1 (UniProt Q99986) | inactive: -0.002 | inactive: 0 | inactive: -0.001 | inactive: 0.005 | inactive: 0.032 | inactive: -0.059 | inactive: -0.018 | inactive: 0.015 | inactive: 0.003 | inactive: -0.046 | inactive: -0.013 | inactive: -0.08 | inactive: 0.091 | inactive: 0.002 | inactive: 0.056
8 | WTAP (UniProt Q15007) | inactive: 0.023 | inactive: 0.003 | inactive: -0.018 | inactive: -0.035 | inactive: -0.016 | inactive: -0.005 | inactive: 0.011 | inactive: 0.03 | inactive: -0.04 | inactive: -0.017 | inactive: 0.032 | inactive: -0.043 | inactive: -0.002 | inactive: -0.003 | inactive: -0.008
9 | VPS53 isoform 4 (UniProt Q5VIR6) | inactive: -0.013 | inactive: -0.015 | inactive: -0.063 | inactive: -0.004 | inactive: 0.026 | inactive: 0.003 | inactive: -0.019 | inactive: 0.005 | inactive: 0.006 | inactive: -0.005 | inactive: -0.014 | inactive: -0.156 | inactive: 0.021 | inactive: -0.021 | inactive: -0.013
10 | WDR36 (UniProt Q8NI36) | inactive: 0.003 | inactive: -0.015 | inactive: 0.012 | inactive: 0.002 | inactive: 0.025 | inactive: -0.014 | inactive: -0.002 | inactive: 0.03 | inactive: -0.004 | inactive: -0.01 | inactive: -0.051 | active: -0.345 | inactive: 0.044 | inactive: 0.028 | inactive: -0.011
11 | WNK4 (UniProt Q96J92) | inactive: 0.039 | inactive: 0.055 | inactive: -0.065 | inactive: 0.005 | inactive: 0.056 | inactive: -0.076 | inactive: 0.059 | inactive: 0.07 | inactive: 0.063 | inactive: -0.038 | inactive: 0.004 | inactive: -0.161 | inactive: 0.099 | inactive: -0.019 | inactive: -0.041
12 | WIPF2 (UniProt Q8TF74) | inactive: -0.085 | inactive: 0.029 | inactive: 0.027 | inactive: -0.034 | inactive: -0.03 | inactive: 0.02 | inactive: 0.121 | inactive: 0.017 | inactive: 0 | inactive: -0.015 | inactive: -0.007 | inactive: 0.098 | inactive: -0.027 | inactive: 0.014 | inactive: -0.027
13 | WDR75 (UniProt Q8IWA0) | inactive: 0.034 | inactive: 0.012 | inactive: 0.014 | inactive: -0.029 | inactive: 0.046 | inactive: -0.151 | inactive: -0.136 | inactive: 0.05 | inactive: 0.022 | inactive: -0.015 | inactive: -0.014 | inactive: -0.086 | inactive: 0.06 | inactive: 0.059 | inactive: -0.091
14 | WDR3 (UniProt Q9UNX4) | inactive: 0.055 | inactive: 0.001 | inactive: -0.069 | inactive: -0.016 | inactive: 0.027 | inactive: 0.044 | inactive: -0.003 | inactive: 0.021 | inactive: 0.023 | inactive: 0.009 | inactive: -0.031 | active: -0.255 | inactive: 0.044 | inactive: 0.01 | inactive: -0.001
15 | WDR89 (UniProt Q96FK6) | inactive: -0.073 | inactive: 0.075 | inactive: -0.032 | inactive: 0.062 | inactive: 0.026 | inactive: -0.003 | inactive: 0.033 | inactive: 0.021 | inactive: -0.026 | inactive: -0.087 | inactive: 0.071 | inactive: -0.03 | inactive: 0.024 | inactive: 0.011 | inactive: 0.031
16 | WRAP53 (UniProt Q9BUR4) | inactive: -0.048 | inactive: 0.039 | inactive: 0.023 | inactive: -0.029 | inactive: -0.037 | inactive: 0.011 | inactive: 0.081 | inactive: 0.055 | inactive: -0.019 | inactive: -0.043 | inactive: 0.001 | inactive: 0.018 | inactive: 0.029 | inactive: 0.023 | inactive: -0.005
17 | WDHD1 (UniProt O75717) | inactive: -0.008 | inactive: 0.026 | inactive: -0.023 | inactive: 0.012 | inactive: 0.01 | inactive: -0.029 | inactive: -0.01 | inactive: 0.008 | inactive: 0.013 | inactive: 0.01 | inactive: -0.011 | active: -0.259 | inactive: 0.02 | inactive: -0.018 | inactive: 0.016
18 | VPS33A (UniProt Q96AX1) | inactive: -0.007 | inactive: -0.004 | inactive: -0.007 | inactive: -0.027 | inactive: 0.045 | inactive: -0.018 | inactive: -0.006 | inactive: 0.041 | inactive: 0.021 | inactive: -0.034 | inactive: 0.011 | active: -0.222 | inactive: 0.025 | inactive: 0.007 | inactive: -0.018
19 | VPS37A (UniProt Q8NEZ2) | inactive: -0.011 | inactive: -0.009 | inactive: -0.079 | inactive: 0.001 | inactive: 0.069 | inactive: 0.003 | inactive: -0.072 | inactive: -0.001 | inactive: 0.032 | inactive: 0.032 | inactive: -0.004 | inactive: -0.189 | inactive: 0.041 | inactive: -0.036 | inactive: -0.056
20 | WDR82 (UniProt Q6UXN9) | inactive: 0.031 | inactive: -0.006 | inactive: 0.007 | inactive: 0.024 | inactive: 0.011 | inactive: 0.016 | inactive: -0.025 | inactive: -0.02 | inactive: -0.001 | inactive: 0.035 | inactive: -0.009 | inactive: -0.121 | inactive: 0.006 | inactive: -0.018 | inactive: -0.004
21 | XPNPEP1 isoform 3 (UniProt Q9NQW7) | inactive: 0.022 | inactive: 0.016 | inactive: -0.049 | inactive: -0.004 | inactive: 0.014 | inactive: 0.024 | inactive: 0.011 | inactive: 0.007 | inactive: -0.005 | inactive: -0.023 | inactive: 0.006 | inactive: -0.068 | inactive: -0.001 | inactive: -0.019 | inactive: 0.002

Looked up one by one from above (two):
Row | Target | log2 fold change (nilotinib) | log2 fold change [1] | log2 fold change (dasatinib) | log2 fold change [2] | log2 fold change [3] | log2 fold change (quisinostat) | log2 fold change (tipifarnib) | log2 fold change [4] | log2 fold change [5] | log2 fold change [6] | log2 fold change [7] | log2 fold change (vorinostat) | log2 fold change (silmitasertib) | log2 fold change [8] | log2 fold change (entospletinib)
18 | VPS33A (UniProt Q96AX1) | inactive: -0.007 | inactive: -0.004 | inactive: -0.007 | inactive: -0.027 | inactive: 0.045 | inactive: -0.018 | inactive: -0.006 | inactive: 0.041 | inactive: 0.021 | inactive: -0.034 | inactive: 0.011 | active: -0.222 | inactive: 0.025 | inactive: 0.007 | inactive: -0.018
9 | VPS53 isoform 4 (UniProt Q5VIR6) | inactive: -0.013 | inactive: -0.015 | inactive: -0.063 | inactive: -0.004 | inactive: 0.026 | inactive: 0.003 | inactive: -0.019 | inactive: 0.005 | inactive: 0.006 | inactive: -0.005 | inactive: -0.014 | inactive: -0.156 | inactive: 0.021 | inactive: -0.021 | inactive: -0.013
